Assay results as given in PubChem BioAssay AID540276 (National Center for Advancing Translational Sciences (NCATS), 2011).
Screen size: about 300,000 compounds; about 5,400 (1.8%) were called active. This list was built around the results that the source calls inconclusive (neither active nor inactive); the mix of calls is not that of the screen. Calls follow the shape of the full dose curve; tested in HEK293 cells. Potencies beside an inconclusive call are fits to weak or partial responses and may not hold up.

experiment: qHTS for inhibitors of binding or entry into cells for Marburg Virus; conditions: Marburg virus pseudotyped entry inhibition, cell reporter; series mostly up to 37.8 µM
Potency is read from the fitted curve at half-maximal effect.

**Q.** With `Cc1ccc(S(=O)(=O)N2CCC(=O)N2)cc1` as the compound, how does the Potency read?
**A.** Its Potency is “inactive”.

**Q.** Which Potency does the source give for `Cc1cc(NC(=O)CSc2nc3c(c(=O)n2-c2ccccc2)SC(C)C3)no1` (stereo not given) here?
**A.** The Potency was “inactive”.

**Q.** With `CCN(C(=O)COC(=O)CCNS(=O)(=O)c1ccccc1F)c1c(N)n(Cc2ccccc2)c(=O)[nH]c1=O` as the compound, how does the Potency read?
**A.** The Potency was “inactive”.

**Q.** With `CC1Cc2ccccc2N1C(=O)CSc1nccc(=O)[nH]1` (stereo not given) as the compound, how does the Potency read?
**A.** The Potency was “inactive”.

**Q.** Which Potency does the source give for `O=C(CCCN1C(=O)/C(=C\c2cccs2)SC1=S)Nc1ccc(O)cc1` here?
**A.** The Potency was inconclusive: 22.4 µM [inhibitor, single point].

**Q.** For `O=S(=O)(c1ccc(Cl)c(C(F)(F)F)c1)N1CCN(CC(O)COc2ccccc2F)CC1` (stereo not given), which Potency is on record?
**A.** The Potency was “inactive”.

**Q.** With `NNC(=O)c1[nH]c2ccc(Cl)cc2c1-c1ccccc1` as the compound, how does the Potency read?
**A.** Its Potency is inconclusive: 20 µM [inhibitor, partial curve, poor fit].

**Q.** For `OC(COc1ccc2ccccc2c1)CN1CCCC1` (stereo not given), which Potency is on record?
**A.** The Potency was inconclusive: 29.1 µM [inhibitor, single point].

**Q.** Which Potency does the source give for `CCc1ccc(Oc2cc(Cl)nc(N)n2)cc1` here?
**A.** The Potency was inconclusive: 0.316 µM [activator, full curve, poor fit].

**Q.** With `COc1ccc(C2(C#N)CCN(C)CC2)cc1` as the compound, how does the Potency read?
**A.** The Potency was inconclusive: 2.82 µM [activator, full curve].

**Q.** Which Potency does the source give for `CCOC(=O)CCc1c(C)n(CC)c2ncnn2c1=O` here?
**A.** Its Potency is inconclusive: 5.17 µM [inhibitor, partial curve, poor fit].

**Q.** Which Potency does the source give for `Cc1cc(C)n2c(Nc3ccc4c(c3)OCCO4)c(-c3ccco3)nc2n1` here?
**A.** The Potency was “inactive”.

**Q.** For `Cc1cc(=O)oc(C)c1C(=O)NCc1c(F)cc(F)cc1F`, which Potency is on record?
**A.** Its Potency is “inactive”.

**Q.** For `COc1cc(-c2nnc(-c3ccc(N4CCOCC4)cc3)o2)cc(OC)c1OC`, which Potency is on record?
**A.** Its Potency is inconclusive: 23.1 µM [inhibitor, partial curve, poor fit].

**Q.** For `CCCc1cc(=O)[nH]c(SCC(=O)Nc2oc(C)c3c(C)n[nH]c(=O)c23)n1`, which Potency is on record?
**A.** The Potency was inconclusive: 3.16 µM [activator, single point].

**Q.** With `COc1ccc(COC(=O)N/N=C2\C[C@@H](O)[C@@H](O)[C@@H]3[C@@H]4C(=O)N(Cc5ccc6c(c5)OCO6)C(=O)[C@@H]4CC[C@@H]23)cc1` as the compound, how does the Potency read?
**A.** Its Potency is “inactive”.

**Q.** Which Potency does the source give for `NS(=O)(=O)c1ccc(NC(=S)NNC(=O)c2cccs2)cc1` here?
**A.** The Potency was inconclusive: 11.2 µM [activator, single point].

**Q.** For `CCn1cc(C(=O)NCCCOC)c2cc(OC)c(OC)cc2c1=O`, which Potency is on record?
**A.** The Potency was inconclusive: 25.9 µM [activator, partial curve, poor fit].

**Q.** With `CC(/C=N/NC(=O)CN1CCN(Cc2ccc(Cl)cc2)CC1)=C\c1ccco1` as the compound, how does the Potency read?
**A.** The Potency was inconclusive: 6.31 µM [inhibitor, single point].

**Q.** With `CCn1c(NCc2cc(OC)c(OC)c(OC)c2)nc2ccccc21` as the compound, how does the Potency read?
**A.** The Potency was “inactive”.
